This is one part of the list. The main result of the screen is listed elsewhere. These columns were measured beside it and carry no call. The list favours compounds with an active or inconclusive main result. The note in brackets gives the kind of curve behind each potency; many fits are weak.
Assay: qHTS Assay for Lipid Storage Modulators in Drosophila S3 Cells;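 on cell number change: cells counted by Cell Tracker Red CMTPX staining in the red channel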
Settings: BODIPY lipid droplet fluorescence, 18-24 h; for cell number change: measured here: cell count max response, cells fed with added oleic acid
How it was run: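 Drosophila S3 cells got compounds at several concentrations plus oleic acid (400 uM solution). Laser-scanning cytometry with 488 nm excitation read lipid droplets at 500-530 nm and cells at 575-640 nm. Percent activity was relative to 20 uM Triacsin C.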

[1] = measured here: lipid fluorescence (Fed channel) AC50, cells fed with added oleic acid
[2] = measured here: cell number channel AC50, cells fed with added oleic acid

| Structure (SMILES) | AC50 [1] | cell number change | AC50 [2] |
| --- | --- | --- | --- |
| COCCNC(=O)CN1CCC(NC(=O)Nc2ccc(C(F)(F)F)cc2)CC1 | 0.651 µM [falling, single point] |  |  |
| O=C1NCC(=O)N(Cc2ccccc2)/C1=C/c1ccccc1 |  | 7.43% |  |
| Cn1c(/C(C#N)=C/c2cccc(O)c2)nc2ccccc21 | 14.6 µM [falling, single point] | -14% |  |
| COc1cc(C(=O)COC(=O)c2cc([N+](=O)[O-])ccc2N2CCOCC2)ccc1OC(F)F | 0.411 µM [rising, single point] |  |  |
| CCOC(=O)N=Nc1c(O)n(C)c2ccccc12 |  | -3.1% | 3.66 µM [rising, single point] |
| S=C(Nc1ccc(-c2nc3ccccc3[nH]2)cc1)Nc1cccnc1 | 0.326 µM [falling, full curve] | 13.9% |  |
| COC(=O)N/N=C/c1cn(CCCOc2ccccc2)c2ccccc12 | 0.231 µM [rising, full curve] | -0.934% |  |
| C=CCC1CCCCC12NC(=O)NC2=O (stereo not given) | 16.4 µM [falling, partial curve] | 7.37% |  |
| CCOc1ccc(NC(=O)CN(C)Cc2ccc3c(c2)OCO3)cc1S(=O)(=O)N1CCCC1 |  | -17.9% | 4.11 µM [falling, single point] |
| O=C(c1ccccc1Cl)N1CCN(S(=O)(=O)c2cccs2)CC1 |  | -6.27% |  |
| O=C(Nc1ccccc1-c1ccccc1)NC1CC2CCCC(C1)N2CCc1ccccc1 (stereo not given) | 0.366 µM [falling, partial curve] | -0.626% | 0.13 µM [falling, full curve, poor fit] |
| CCOC(=O)c1ccc(NC(=O)c2ccc(NS(C)(=O)=O)cc2)cc1 | 1.64 µM [rising, partial curve] |  | 1.64 µM [rising, partial curve] |
| O=C(CCC(=O)Nc1ccc(Br)cc1)N/N=C/c1cc([N+](=O)[O-])ccc1O |  | 23% |  |
| CCOC(=O)N1CCN(CC(O)COCc2ccc(OC)c(OC)c2)CC1 (stereo not given) | 6.51 µM [rising, partial curve] | 3.92% |  |
| Cc1cc(OCc2cc(C(=O)N(C)C3CCOCC3)no2)cc(C)c1Cl |  | 12.7% | 1.26 µM [rising, partial curve] |
| FC(F)(F)c1cc(-c2ccco2)nc(-n2cnc3ccccc32)n1 |  | -4.67% |  |
| COc1ccc(CCNC(=O)[C@@H]2C[C@H]2c2ccccc2)cc1OC | 29.1 µM [falling, single point] | 22.6% | 6.51 µM [rising, partial curve, poor fit] |
| COCCNC(=O)c1ccc(C)cc1C | 2.31 µM [falling, single point] | 3.25% |  |
| Cc1c(C(=O)Nc2ccc3c(c2)OCO3)sc2nc(-c3ccccc3)cn12 | 0.291 µM [rising, partial curve, poor fit] | 15.8% | 0.146 µM [rising, full curve, poor fit] |

| Structure (SMILES) | AC50 [1] | cell number change | AC50 [2] |
| --- | --- | --- | --- |
| COC(=O)c1oc2c(c1C)C(=O)CC(C)(C)C2 | 29.1 µM [rising, single point] | 47.2% | 9.2 µM [rising, partial curve] |
| O=C(NN=C1CCCCC1)c1ccccc1OCc1ccc(F)cc1 |  | 30.7% | 14.6 µM [rising, partial curve] |
| COc1cc(S(=O)(=O)N2CCOCC2)ccc1F | 4.11 µM [falling, single point] | -16% |  |
| O=C(O)C(Cc1ccccc1)N1C(=O)/C(=C/c2ccccc2)SC1=S (stereo not given) | 2.06 µM [falling, partial curve] | -38.4% | 2.59 µM [falling, full curve] |
| O=C(NCc1ccco1)c1cnn2c1NC(c1ccc(Br)cc1)CC2C(F)(F)F (stereo not given) | 5.17 µM [rising, partial curve, poor fit] |  |  |
| Cc1ccc(C(=O)N(CCN2CCCCC2)CC2CCCN(C3CCCC3)C2)s1 (stereo not given) | 6.51 µM [falling, single point] | -9.94% |  |
| Cc1c(CN(C)C(=O)CSc2nc(-c3ccco3)cc(C(F)(F)F)n2)cnn1C |  | -14.5% |  |
| O=C(NCCCn1ccnc1)/C(=C/c1ccc(Cl)cc1)NC(=O)c1ccccc1 | 3.26 µM [falling, full curve] | -3.81% |  |
| CC(=O)Nc1ccc(S(=O)(=O)N2CCN(c3cnn(C)c(=O)c3Cl)CC2)cc1 | 6.51 µM [falling, single point] | -2.87% |  |
| O=C(NCCCn1ccnc1)c1ccc(F)cc1 | 0.058 µM [falling, full curve, poor fit] | -8.77% |  |
| CC1(C)Cc2nc(N)c(=O)sc2C1 | 23.1 µM [rising, single point] | 1.4% |  |
| CN(c1ccccc1C(=O)NCC1CCCO1)S(C)(=O)=O (stereo not given) | 29.1 µM [falling, single point] | -47.5% | 3.26 µM [falling, full curve] |
| O=C(O)CCSc1nc2ccccc2n1CCOc1ccccc1 | 0.731 µM [falling, full curve] | 1.35% | 0.231 µM [rising, full curve] |
| CNc1ccccc(C(=O)/C=C/c2ccccc2OC)c1=O | 9.2 µM [falling, single point] | -2.99% |  |
| CC(=O)c1c(C)[nH]c(C(=O)NCc2ccc(C)cc2)c1C | 2.06 µM [rising, partial curve] | 23.1% |  |
| CC1(C)CC(=O)C2=C(C1)OC(N)=C(C#N)C21C(=O)N(Cc2ccccc2Cl)c2ccccc21 (stereo not given) | 16.4 µM [rising, single point] | 69.8% | 2.59 µM [rising, full curve] |
| N#C/C(C(N)=O)=C1/CCc2ccccc2N1 | 2.91 µM [rising, partial curve] |  | 3.66 µM [rising, single point] |
| Cc1nc2cc(NC(=O)Nc3ccccc3Cl)ccc2n1C | 18.4 µM [falling, single point] | -13.4% |  |
| CCN(CC)CCN1C(=O)C2C(C(=O)Nc3cccc(C)c3)C3C=CC2(O3)C1C(=O)NC1CCCC(C)C1C (stereo not given) | 0.58 µM [falling, single point] |  |  |

Nine entries from above, ordered by molecular weight, smallest number first.

| Structure (SMILES) | AC50 [1] | cell number change | AC50 [2] |
| --- | --- | --- | --- |
| N#C/C(C(N)=O)=C1/CCc2ccccc2N1 | 2.91 µM [rising, partial curve] |  | 3.66 µM [rising, single point] |
| COC(=O)c1oc2c(c1C)C(=O)CC(C)(C)C2 | 29.1 µM [rising, single point] | 47.2% | 9.2 µM [rising, partial curve] |
| COc1cc(S(=O)(=O)N2CCOCC2)ccc1F | 4.11 µM [falling, single point] | -16% |  |
| CN(c1ccccc1C(=O)NCC1CCCO1)S(C)(=O)=O (stereo not given) | 29.1 µM [falling, single point] | -47.5% | 3.26 µM [falling, full curve] |
| O=C(O)C(Cc1ccccc1)N1C(=O)/C(=C/c2ccccc2)SC1=S (stereo not given) | 2.06 µM [falling, partial curve] | -38.4% | 2.59 µM [falling, full curve] |
| Cc1ccc(C(=O)N(CCN2CCCCC2)CC2CCCN(C3CCCC3)C2)s1 (stereo not given) | 6.51 µM [falling, single point] | -9.94% |  |
| Cc1c(CN(C)C(=O)CSc2nc(-c3ccco3)cc(C(F)(F)F)n2)cnn1C |  | -14.5% |  |
| CC(=O)Nc1ccc(S(=O)(=O)N2CCN(c3cnn(C)c(=O)c3Cl)CC2)cc1 | 6.51 µM [falling, single point] | -2.87% |  |
| CCN(CC)CCN1C(=O)C2C(C(=O)Nc3cccc(C)c3)C3C=CC2(O3)C1C(=O)NC1CCCC(C)C1C (stereo not given) | 0.58 µM [falling, single point] |  |  |

Reference: PubChem BioAssay AID2685 (National Center for Advancing Translational Sciences (NCATS), 2010)
